Test results from article PMC9166766.
These are yes or no findings as the source states them, for the method shown. A result given as binding can be weak or reduced; the word gives no strength. Sequences can lack the tags named with a protein.

What was measured:
Test in all cases: two-hybrid; mammalian two-hybrid in HEK293T cells: GAL4 DBD-tagged peptides, VP16 activation domain-tagged CNAβ2 and pG5-luc cotransfected for 24 h, luciferase read-out; Fig. 4b with or without 1 μM ionomycin
[1] = biological target: T1, GAL4 DBD-tagged CABIN1-L-1-1
T1 sequence: PPEITVTPPTP

[2] = biological target: T2, GAL4 DBD-tagged CABIN1-L-1
T2 sequence: FPPEITVTPPTP

[3] = biological target: T3, GAL4 DBD-tagged CABIN1-L-1-2
T3 sequence: PEITVTPPTP

Measured: binding

VP16 activation domain-tagged CNAβ2
binds: all assays above
